Laboratory results reported in paper PMC6329795.
Results are given in words; binding and its absence hold for the method and conditions named. In cells and extracts the contact can be indirect. Some entries that bind do so weakly or less than the wild type.

Amino acid sequences for entries named in this document (tags omitted). A change or cut given only in a name is not applied to a line headed by its entry.
UniProt B6SBL8: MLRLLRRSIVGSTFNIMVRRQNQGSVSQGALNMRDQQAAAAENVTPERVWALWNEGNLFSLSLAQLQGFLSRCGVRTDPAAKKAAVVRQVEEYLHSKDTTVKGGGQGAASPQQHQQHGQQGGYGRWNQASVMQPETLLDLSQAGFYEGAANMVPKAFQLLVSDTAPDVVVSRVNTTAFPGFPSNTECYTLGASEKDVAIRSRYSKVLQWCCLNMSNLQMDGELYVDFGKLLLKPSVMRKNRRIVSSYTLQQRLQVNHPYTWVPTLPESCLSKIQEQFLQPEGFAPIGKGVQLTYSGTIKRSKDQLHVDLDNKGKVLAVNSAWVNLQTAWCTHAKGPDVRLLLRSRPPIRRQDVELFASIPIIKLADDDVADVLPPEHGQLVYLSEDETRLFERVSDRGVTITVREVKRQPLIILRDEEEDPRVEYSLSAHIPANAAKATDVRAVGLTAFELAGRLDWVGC
UniProt B6SBM0: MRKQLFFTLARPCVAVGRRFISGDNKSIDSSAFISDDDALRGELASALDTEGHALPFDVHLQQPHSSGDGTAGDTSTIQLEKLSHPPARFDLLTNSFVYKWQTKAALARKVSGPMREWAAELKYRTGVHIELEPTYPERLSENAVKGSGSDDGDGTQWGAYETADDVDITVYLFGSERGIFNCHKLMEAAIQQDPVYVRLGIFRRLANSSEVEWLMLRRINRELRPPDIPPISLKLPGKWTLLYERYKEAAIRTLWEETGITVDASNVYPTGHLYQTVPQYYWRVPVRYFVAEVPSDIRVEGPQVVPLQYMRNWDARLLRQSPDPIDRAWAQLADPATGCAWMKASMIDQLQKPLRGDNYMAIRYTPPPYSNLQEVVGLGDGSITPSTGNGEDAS

Biological target: GRBC1/2 (RNA editing substrate-binding complex, RESC) (Trypanosoma brucei (endogenous in procyclic T. brucei)) (UniProt B6SBL8)
Test: co-sedimentation + native gel or EMSA; detergent extract of crude mitochondrial fraction, 10-30% glycerol gradient 5 h at 178,000 x g, each fraction on 3-12% Bis-Tris native gel, immunoblotting

MERS1 NUDIX hydrolase (PPsome subunit) (from UniProt B6SBM0 1-395) (enzyme)
binding: binds
